This assay in a line: modulators of CD8 T cell-vesicle binding, confirmation, cherry-picked primary hits, two concentrations (AID 2810).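 As to all read-outs here: lower values mean blocking of vesicle binding.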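 As to percent response (vesicle binding): ratio of mean FL2 vesicle stain of CD8+ cells to that row's control.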 The settings on record: 2C CD8+ T cell-vesicle binding, flow cytometry; for double positive events: CD8+/vesicle+ events. A general note: In flow cytometry, cells or beads pass a laser one at a time.
[1] abbreviates: at 15.4 µM, stronger effect = lower value.

Here are results for 40 compounds from PubChem BioAssay AID2810 (NMMLSC, 2010).

The other results are listed elsewhere or left out. These are further read-outs of the screen, such as a control signal, another cell line or another target. No call is given for them.

Turning to `C/C(CCC(=O)OC[C@H]1O[C@H](C#Cc2ccccc2)C=C[C@@H]1Oc1ccc(C)cc1)=N\OC[C@@H](O)[C@H]1O[C@@H]2OC(C)(C)O[C@@H]2[C@H]1O`, where the note is “at 7.7 µM”, the double positive events is 12.9% and the percent response (vesicle binding) came out at 104%. The double positive events under setting [1] is 12.7%.

As for `Cc1cccc(NC(=O)CN2C(=O)N/C(=C\c3ccc(N4CCOCC4)cc3)C2=O)c1`, for the setting “at 7.7 µM”, the double positive events came out at 39.3% and the percent response (vesicle binding) amounted to 288%. The compound further had a double positive events under setting [1] of 21.3%.

For `O=C(CCc1ccccc1)NC1(Cc2ccccc2)CCN(CCCc2ccccc2)C1=O` (stereo not given), for the setting “at 7.7 µM”, the double positive events was 32.8% and the percent response (vesicle binding) stood at 253%. Under setting [1], this compound yielded a double positive events of 7.1%.

Consider `O=C(Cc1ccc(Cl)cc1)SCc1ccccc1`, for which the double positive events turned out to be 9.7% (at 7.7 µM) and 27.6% under setting [1]. For the same compound, the percent response (vesicle binding) (at 7.7 µM) turned out to be 104%.

Consider `CCN(CC(=O)NCCc1ccccc1)S(=O)(=O)c1ccccc1`, for which, under “at 7.7 µM”, the double positive events was found to be 28.6% and the percent response (vesicle binding) amounted to 234%. The compound also came in with a double positive events under setting [1] of 15.6%.

Where the note is “at 7.7 µM”, `Cc1ccccc1C(=O)NCC(=O)N1CCN(C/C=C/c2ccccc2)CC1` had a double positive events of 28.3% and a percent response (vesicle binding) of 115%. Also, under setting [1], the double positive events was 4.9%.

For the setting “at 7.7 µM”, `C=CCN1C(=O)NC2(O)C(=O)c3ccccc3C12O` (stereo not given) had a double positive events of 8.9% and a percent response (vesicle binding) of 203%. The double positive events under setting [1] is 12.1%.

On to `COc1ccc(N2C(=O)CC(Sc3ncn[nH]3)C2=O)c(OC)c1` (stereo not given), for which the double positive events is, setting by setting: (at 7.7 µM) 2.2%; under setting [1], 4.2%. For the setting “at 7.7 µM”, this compound gave a percent response (vesicle binding) of 89.2%.

With `CN(C)S(=O)(=O)c1ccc(C(=O)NCCc2ccco2)cc1`, the double positive events was determined as 24.2% (at 7.7 µM) and 5.1% under setting [1]. In addition, where the note is “at 7.7 µM”, the percent response (vesicle binding) turned out to be 197%.

For the compound `COc1ccc(C(C)NC(=O)c2ccccc2Cl)cc1OC` (stereo not given), under “at 7.7 µM”, the double positive events amounted to 21.3% and the percent response (vesicle binding) worked out at 195%. Under setting [1], this compound returned a double positive events of 13.6%.

Where the note is “at 7.7 µM”, `CC(C)CC1C(C#N)=C(N)Oc2n[nH]c(-c3ccccc3)c21` (stereo not given) registered a double positive events of 10.6% and a percent response (vesicle binding) of 334%. The double positive events under setting [1] came out at 26.4%.

Under “at 7.7 µM”, `CCCc1cc(=O)oc2cc(OCC(=O)Nc3cc(C)on3)ccc12` registered a double positive events of 34.5% and a percent response (vesicle binding) of 318%. Besides, the double positive events under setting [1] is 14.5%.

Where the note is “at 7.7 µM”, `COc1ccc(C)cc1S(=O)(=O)NNc1nc(C)cc(C)n1` had a double positive events of 39.5% and a percent response (vesicle binding) of 630%. Under setting [1], this compound gave a double positive events of 6.5%.

Consider `O=C(Cc1ccc(Cl)cc1)OCC(=O)N1CCCCCC1`, for which the double positive events is 9.5% (at 7.7 µM) and 25.9% under setting [1]. For the same compound, the percent response (vesicle binding) (at 7.7 µM) was determined as 131%.

Where the note is “at 7.7 µM”, `COc1ccc(C(=O)N/N=C(\C)Cn2cnc([N+](=O)[O-])n2)cc1` returned a double positive events of 48.3% and a percent response (vesicle binding) of 357%. Further, under setting [1], the double positive events is 9.8%.

Regarding `COc1ccc(N=c2oc3ccc(OC)cc3cc2-c2nc3ccccc3[nH]2)cc1`, the double positive events reads like this: (at 7.7 µM) 15.2%; under setting [1], 7.8%. Besides, the percent response (vesicle binding) (at 7.7 µM) was 129%.

As for `CC1(C)SC[C@H](C(=O)Nc2cccc(Cl)c2)N1C=O`, under “at 7.7 µM”, the double positive events amounted to 22.8% and the percent response (vesicle binding) was 311%. For the same compound, under setting [1], the double positive events turned out to be 39.4%.

Take `S=C(NC1CCCCC1)N1CCc2[nH]c3ccccc3c2C1`: under “at 7.7 µM”, the double positive events was 20.2% and the percent response (vesicle binding) stood at 242%. This compound also had a double positive events under setting [1] of 20.3%.

Under “at 7.7 µM”, `O=C1OC(Cc2ccccn2)C(O)=C1C1=NCCCN1` (stereo not given) gave a double positive events of 13.2% and a percent response (vesicle binding) of 516%. This compound also showed a double positive events under setting [1] of 11.7%.

For the setting “at 7.7 µM”, `O=C(C1CCCO1)N1CCN(c2c3c(nc4cc(-c5ccc(F)cc5)nn24)CCC3)CC1` (stereo not given) showed a double positive events of 24.5% and a percent response (vesicle binding) of 174%. This compound showed a double positive events under setting [1] of 15.1%.

For the compound `O=C(CC12CC3CC(CC(C3)C1)C2)N/N=C/c1ccc([N+](=O)[O-])o1`, the double positive events by setting is: (at 7.7 µM) 16.6%; under setting [1], 3.3%. The compound further came in with a percent response (vesicle binding) (at 7.7 µM) of 142%.

Under “at 7.7 µM”, `COc1ccc(C(=O)N2CCOC2CNC(=O)C(=O)NCc2ccc(F)cc2)cc1` (stereo not given) returned a double positive events of 13.9% and a percent response (vesicle binding) of 179%. Also, the double positive events under setting [1] worked out at 12.2%.

Take `CCCn1c(SCC(=O)NCc2ccc3c(c2)OCO3)n[nH]c1=O`: for the setting “at 7.7 µM”, the double positive events was determined as 11% and the percent response (vesicle binding) was determined as 421%. Under setting [1], this compound returned a double positive events of 17.5%.

The compound `CC(=O)c1ccc(N2CCN(S(=O)(=O)c3cc4[nH]c(=O)c(=O)[nH]c4cc3C)CC2)cc1` gave a double positive events (at 7.7 µM) of 7.8% and a double positive events under setting [1] of 20.8%. Besides, the percent response (vesicle binding) (at 7.7 µM) turned out to be 171%.

In the case of `Cn1c(=O)c2cc(S(=O)(=O)NCCC(=O)NC3CCCCCC3)ccc2n(C)c1=O`, where the note is “at 7.7 µM”, the double positive events turned out to be 12% and the percent response (vesicle binding) worked out at 140%. This compound had a double positive events under setting [1] of 21.1%.

Under “at 7.7 µM”, `C=CCOC(=O)C1C(=O)CC(C)(O)C(C(=O)OCC=C)C1c1ccc(N(C)C)cc1` (stereo not given) had a double positive events of 22.4% and a percent response (vesicle binding) of 232%. The same compound yielded a double positive events under setting [1] of 21%.

Regarding `CCn1cc(C(=O)N2CCOCC2)c(=O)c2cc(S(=O)(=O)N(C)C3CCCCC3)ccc21`, for the setting “at 7.7 µM”, the double positive events was determined as 11.1% and the percent response (vesicle binding) was 199%. The compound further registered a double positive events under setting [1] of 15.1%.

Where the note is “at 7.7 µM”, `O=[N+]([O-])c1ccc(Sc2ccccn2)nc1` registered a double positive events of 20.7% and a percent response (vesicle binding) of 379%. In addition, the double positive events under setting [1] came to 12.7%.

For the setting “at 7.7 µM”, `CC1CCc2c(sc(NC(=O)Cn3nc(C(F)(F)F)c4c3CCCCC4)c2C#N)C1` (stereo not given) registered a double positive events of 14.7% and a percent response (vesicle binding) of 232%. The compound also had a double positive events under setting [1] of 24%.

`Cc1cccc(NS(=O)(=O)c2c(C)noc2C)c1`: for the setting “at 7.7 µM”, the double positive events came out at 8.7% and the percent response (vesicle binding) came out at 139%. Further, the double positive events under setting [1] stood at 6.9%.

`CN1CCC(=NNC(=O)c2ccc(N(Cc3ccccc3Cl)S(C)(=O)=O)cc2)CC1`: where the note is “at 7.7 µM”, the double positive events worked out at 14.9% and the percent response (vesicle binding) was determined as 167%. The double positive events under setting [1] worked out at 26.5%.

For `CCN(CC)CCNC(=O)c1ccc(NC(=O)c2ccc(C(=O)c3ccccc3)cc2)cc1`, for the setting “at 7.7 µM”, the double positive events was determined as 18.1% and the percent response (vesicle binding) amounted to 275%. The same compound gave a double positive events under setting [1] of 35.8%.

For the setting “at 7.7 µM”, `CCn1nccc1C(=O)Nc1cc(Cl)cc(Cl)c1` registered a double positive events of 6% and a percent response (vesicle binding) of 120%. Also, the double positive events under setting [1] came to 18.5%.

Regarding `O=S(=O)(Cc1ccc(Cl)cc1)NCC1CCCO1` (stereo not given), for the setting “at 7.7 µM”, the double positive events was determined as 31.6% and the percent response (vesicle binding) came out at 411%. Further, the double positive events under setting [1] was 10.5%.

As to `CC(C)(C)OC(=O)N[C@H](C(=O)OC(C)(C)C)c1ccc2c(c1)OCO2`, where the note is “at 7.7 µM”, the double positive events came out at 27.9% and the percent response (vesicle binding) came out at 168%. Under setting [1], this compound came in with a double positive events of 6.3%.

For the setting “at 7.7 µM”, `Cc1cc(C)n(C(=O)Cc2cn3ccsc3n2)n1` returned a double positive events of 38.2% and a percent response (vesicle binding) of 282%. The double positive events under setting [1] is 18.2%.

Where the note is “at 7.7 µM”, `O=C(CSc1ccc(-c2cccs2)nn1)N1CCCCCC1` registered a double positive events of 21.4% and a percent response (vesicle binding) of 211%. Under setting [1], this compound had a double positive events of 29.4%.

Turning to `CC(NC(=O)COC(=O)C1CC2CCCC(C1)C2=O)c1ccccc1` (stereo not given), under “at 7.7 µM”, the double positive events was 10.8% and the percent response (vesicle binding) is 274%. For the same compound, the double positive events under setting [1] amounted to 10.4%.

As to `O=C(Cc1ccc(S(=O)(=O)N2CCOCC2)s1)Nc1ccc(S(=O)(=O)N2CCCCC2)cc1`, for the setting “at 7.7 µM”, the double positive events worked out at 24.7% and the percent response (vesicle binding) amounted to 230%. The same compound gave a double positive events under setting [1] of 33.7%.

Regarding `CN(Cc1ccccc1)C(=O)c1nc[nH]c1C(=O)N1CCN(c2ccccc2)CC1`, for the setting “at 7.7 µM”, the double positive events amounted to 16.6% and the percent response (vesicle binding) was 122%. In addition, the double positive events under setting [1] is 27.9%.
